# Measured values reported in PubChem BioAssay.
# The inconclusive results got no clear call from the source; some entries with a clear call stand among them for comparison. Where the call is inconclusive, the potency comes from a doubtful curve fit. Active and inactive are the calls of the source. Unless noted, cut-off not given; nearly all actives show AC50 up to about 26 µM.
# How the values were obtained:
# [1] = growth inhibition of DIPG glioma cells, dose response, cell-based, SU-DIPG-XVII, MIPE5.0, CellTiter-Glo, qHTS (AID 1347060); conditions: SU-DIPG-XVII viability, CellTiter-Glo ATP luminescence;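 on AC50: cells exposed to compound for 48 hours before viability readout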
# [2] = growth inhibition of DIPG glioma cells, dose response, cell-based, SU-DIPG-XIII, MIPE5.0, CellTiter-Glo, qHTS (AID 1347064; cut-off not given, nearly all actives have AC50 up to about 23 µM;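 on AC50: cells exposed to compound for 48 hours before the viability read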); conditions: SU-DIPG-XIII viability, CellTiter-Glo ATP luminescence
# [3] = viability loss in pontine glioma line – cell-based, SU-DIPG-XXV, MIPE5.0, CellTiter-Glo, qHTS, dose response (AID 1347065); conditions: CellTiter-Glo ATP luminescence;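 further: cells exposed to compound for 48 hours before ATP readout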
# [4] = SU-DIPG-VI glioma cell viability, MIPE4.0 library, CellTiter-Glo luminescence, qHTS (AID 1347066; cut-off not given, nearly all actives have AC50 up to about 30 µM;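 further: cells exposed to compound for 48 hours before readout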); conditions: CellTiter-Glo ATP luminescence
# [5] = JHH-DIPG-1 glioma cell viability, MIPE5.0 library, CellTiter-Glo luminescence, qHTS (AID 1347067); conditions: JHH-DIPG-1 glioma viability, CellTiter-Glo ATP luminescence;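 further: cells exposed to compound for 48 hours before readout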
compound,measurement,setting,value
NC(=O)c1cnc(-c2ccc(C3(N)CCC3)cc2)c(-c2ccccc2)c1,outcome,[1],inactive
same,outcome,[2],inactive
same,AC50,[3],inconclusive: 14.8 µM [cytotoxic]
same,AC50,[4],inconclusive: 0.0118 µM
same,AC50,[5],inconclusive: 0.0833 µM [cytotoxic]
Cc1cc(Nc2ncnc3ccc(NC4=NC(C)(C)CO4)cc23)ccc1Oc1ccn2ncnc2c1,AC50,[1],inconclusive: 18.6 µM [cytotoxic]
same,AC50,[2],inconclusive: 20.9 µM [cytotoxic]
same,AC50,[3],active: 14.8 µM
same,AC50,[5],inconclusive: 18.6 µM [cytotoxic]
O=C(O)c1ccccc1-c1ccc(/C=c2\sc3nc4cc(Br)cnc4n3c2=O)o1,AC50,[1],inconclusive: 18.2 µM [cytotoxic]
same,AC50,[2],inconclusive: 18.2 µM [cytotoxic]
same,AC50,[3],inconclusive: 16.2 µM [cytotoxic]
same,AC50,[5],inconclusive: 18.2 µM [cytotoxic]
CCOC(=O)c1ccnc(CNCC(=O)N(CC)CCN(C)C)c1,outcome,[1],inactive
same,outcome,[2],inactive
same,AC50,[3],inconclusive: 10.5 µM [cytotoxic]
same,AC50,[5],inconclusive: 10.5 µM [cytotoxic]
Cc1ccc(Nc2cc(N[C@@H]3CCCC[C@@H]3N)nnc2C(N)=O)nc1C,AC50,[1],inconclusive: 37.2 µM [cytotoxic]
same,AC50,[2],inconclusive: 37.2 µM [cytotoxic]
same,AC50,[3],inconclusive: 20.9 µM [cytotoxic]
same,AC50,[5],inconclusive: 23.5 µM [cytotoxic]
Nc1ncnc2c1c(COc1cccc(Cl)c1)nn2C1CCOCC1,AC50,[1],inconclusive: 18.6 µM [cytotoxic]
same,outcome,[2],inactive
same,AC50,[3],inconclusive: 37.2 µM [cytotoxic]
same,AC50,[5],inconclusive: 29.5 µM [cytotoxic]
CC1CCC(n2c3cnccc3c3cnc(Nc4ccc5c(n4)CCN(C(=O)CO)C5)nc32)CC1 (stereo unspecified),AC50,[1],inconclusive: 6.05 µM [cytotoxic]
same,AC50,[2],inconclusive: 0.00428 µM [cytotoxic]
same,outcome,[3],inactive
same,outcome,[5],inactive
Cc1ccc2cc(-c3c(C)ccc(C(=O)c4c(-c5ccccc5)n(C)n(-c5ccccc5)c4=O)c3N)ccc2n1,AC50,[1],inconclusive: 33.2 µM [cytotoxic]
same,AC50,[2],inconclusive: 9.34 µM [cytotoxic]
same,AC50,[3],inconclusive: 10.5 µM [cytotoxic]
same,outcome,[5],inactive
CCC1CCCCN1C(=O)n1ncc(C(O)(c2ccccc2)c2ccccc2)n1 (stereo unspecified),AC50,[1],inconclusive: 18.6 µM [cytotoxic]
same,AC50,[2],inconclusive: 18.6 µM [cytotoxic]
same,AC50,[3],inconclusive: 20.9 µM [cytotoxic]
same,AC50,[5],inconclusive: 18.6 µM [cytotoxic]
COc1ccc(-c2c(C)nn3c(NCCN4CCOCC4)cc(C)nc23)cc1OC,AC50,[1],inconclusive: 4.68 µM [cytotoxic]
same,AC50,[2],inconclusive: 0.0525 µM [cytotoxic]
same,AC50,[3],inconclusive: 14.8 µM [cytotoxic]
same,AC50,[5],inconclusive: 7.42 µM [cytotoxic]
C[C@]12CCC3[C@@H](CC[C@H]4NC(=O)C=C[C@]34C)[C@@H]1CC[C@@H]2C(=O)Nc1cc(C(F)(F)F)ccc1C(F)(F)F (stereo partly specified),AC50,[1],inconclusive: 13.2 µM [cytotoxic]
same,AC50,[2],inconclusive: 14.8 µM [cytotoxic]
same,outcome,[3],inconclusive
same,AC50,[5],inconclusive: 33.2 µM [cytotoxic]
C=CC(=O)N1CC(N2CCN(C(=O)CNc3cc(C4(C)CC4)c(Cl)cc3O)CC2)C1,outcome,[1],inactive
same,AC50,[2],inconclusive: 26.3 µM [cytotoxic]
same,outcome,[3],inactive
same,AC50,[5],inconclusive: 26.3 µM [cytotoxic]
Cc1cc(C)c2c(c1)[C@@H](N(Cc1cc(C(F)(F)F)cc(C(F)(F)F)c1)c1nnn(C)n1)CCCN2CC1CCC(C(=O)O)CC1 (stereo partly specified),AC50,[1],inconclusive: 33.2 µM [cytotoxic]
same,AC50,[2],active: 20.9 µM
same,AC50,[3],inconclusive: 33.2 µM [cytotoxic]
same,AC50,[5],inconclusive: 2.63 µM [cytotoxic]
CC(C)Oc1ccc(-c2nn([C@@H](C)c3oc4ccc(F)cc4c(=O)c3-c3cccc(F)c3)c3ncnc(N)c23)cc1F,outcome,[1],inactive
same,outcome,[2],inactive
same,outcome,[3],inactive
same,AC50,[5],inconclusive: 37.2 µM [cytotoxic]
COc1cc2ncnc(Nc3cccc(Cl)c3F)c2cc1OC(=O)N1CCN(C)C[C@H]1C,AC50,[1],inconclusive: 5.9 µM [cytotoxic]
same,outcome,[2],inactive
same,AC50,[3],inconclusive: 0.742 µM [cytotoxic]
same,AC50,[5],inconclusive: 6.61 µM [cytotoxic]

# Exported bar-delimited: entries from further up
compound | measurement | setting | value
Cc1cc(C)c2c(c1)[C@@H](N(Cc1cc(C(F)(F)F)cc(C(F)(F)F)c1)c1nnn(C)n1)CCCN2CC1CCC(C(=O)O)CC1 (stereo partly specified) | AC50 | [1] | inconclusive: 33.2 µM [cytotoxic]
same | AC50 | [2] | active: 20.9 µM
same | AC50 | [3] | inconclusive: 33.2 µM [cytotoxic]
same | AC50 | [5] | inconclusive: 2.63 µM [cytotoxic]
